Reference: the supplement of paper PMC6411743
± gives the standard deviation of the averaged measurements. This is a selection; strong and weak results do not stand in their true shares. Most values lie at the level of the controls, where differences are scatter.

Sequences of proteins named here, by UniProt entry; tags and fusion partners are left off. A change or cut given only in a name is not applied to a line headed by its entry.
UniProt O15066: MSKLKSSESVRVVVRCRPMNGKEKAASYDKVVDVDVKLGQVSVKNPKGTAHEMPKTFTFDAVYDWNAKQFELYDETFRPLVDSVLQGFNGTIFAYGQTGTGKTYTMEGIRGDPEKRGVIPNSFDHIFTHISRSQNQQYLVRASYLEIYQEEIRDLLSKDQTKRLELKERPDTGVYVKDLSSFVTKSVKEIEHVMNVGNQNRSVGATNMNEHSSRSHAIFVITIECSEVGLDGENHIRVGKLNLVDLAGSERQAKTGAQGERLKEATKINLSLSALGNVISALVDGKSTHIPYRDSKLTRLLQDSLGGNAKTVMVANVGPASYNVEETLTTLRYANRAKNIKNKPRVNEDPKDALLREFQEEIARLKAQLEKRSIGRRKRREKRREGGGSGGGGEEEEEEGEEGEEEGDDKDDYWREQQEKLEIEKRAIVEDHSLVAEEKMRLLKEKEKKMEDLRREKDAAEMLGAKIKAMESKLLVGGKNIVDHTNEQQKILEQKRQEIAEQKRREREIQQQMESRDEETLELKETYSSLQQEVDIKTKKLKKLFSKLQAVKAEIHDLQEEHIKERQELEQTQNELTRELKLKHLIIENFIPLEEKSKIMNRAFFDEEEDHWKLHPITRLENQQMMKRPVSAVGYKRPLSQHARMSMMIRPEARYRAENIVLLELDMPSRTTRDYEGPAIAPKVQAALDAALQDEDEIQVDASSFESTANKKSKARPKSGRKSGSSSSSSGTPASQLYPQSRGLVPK
UniProt O00151: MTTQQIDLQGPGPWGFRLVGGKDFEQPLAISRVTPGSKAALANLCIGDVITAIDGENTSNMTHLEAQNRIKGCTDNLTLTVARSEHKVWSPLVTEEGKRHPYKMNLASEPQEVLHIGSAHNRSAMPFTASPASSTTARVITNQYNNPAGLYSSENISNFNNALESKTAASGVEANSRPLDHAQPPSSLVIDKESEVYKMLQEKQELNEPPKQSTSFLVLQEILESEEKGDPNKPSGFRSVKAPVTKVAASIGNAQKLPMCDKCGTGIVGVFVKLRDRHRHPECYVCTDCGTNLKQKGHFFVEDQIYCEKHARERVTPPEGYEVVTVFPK
UniProt O15173: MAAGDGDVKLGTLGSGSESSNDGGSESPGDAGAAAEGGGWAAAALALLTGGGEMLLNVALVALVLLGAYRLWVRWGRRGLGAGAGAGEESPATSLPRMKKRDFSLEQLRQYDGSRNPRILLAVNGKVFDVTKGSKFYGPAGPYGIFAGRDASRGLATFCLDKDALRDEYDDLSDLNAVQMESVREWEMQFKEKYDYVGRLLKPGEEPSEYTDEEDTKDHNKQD
UniProt O43237, whole entry: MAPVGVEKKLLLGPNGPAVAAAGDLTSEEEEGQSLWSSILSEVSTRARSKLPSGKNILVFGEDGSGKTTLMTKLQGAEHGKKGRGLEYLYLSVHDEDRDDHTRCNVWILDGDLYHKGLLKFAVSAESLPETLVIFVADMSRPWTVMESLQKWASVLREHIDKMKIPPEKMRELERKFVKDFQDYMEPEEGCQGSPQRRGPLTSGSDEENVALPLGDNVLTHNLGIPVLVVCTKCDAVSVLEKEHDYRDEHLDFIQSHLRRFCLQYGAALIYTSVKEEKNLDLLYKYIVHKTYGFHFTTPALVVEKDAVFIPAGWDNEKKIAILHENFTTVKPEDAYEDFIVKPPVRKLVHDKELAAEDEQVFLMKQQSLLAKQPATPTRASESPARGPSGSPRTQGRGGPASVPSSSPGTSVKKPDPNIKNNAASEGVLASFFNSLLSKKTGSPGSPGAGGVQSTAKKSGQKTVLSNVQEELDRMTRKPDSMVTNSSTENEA
UniProt Q96CP6, whole entry: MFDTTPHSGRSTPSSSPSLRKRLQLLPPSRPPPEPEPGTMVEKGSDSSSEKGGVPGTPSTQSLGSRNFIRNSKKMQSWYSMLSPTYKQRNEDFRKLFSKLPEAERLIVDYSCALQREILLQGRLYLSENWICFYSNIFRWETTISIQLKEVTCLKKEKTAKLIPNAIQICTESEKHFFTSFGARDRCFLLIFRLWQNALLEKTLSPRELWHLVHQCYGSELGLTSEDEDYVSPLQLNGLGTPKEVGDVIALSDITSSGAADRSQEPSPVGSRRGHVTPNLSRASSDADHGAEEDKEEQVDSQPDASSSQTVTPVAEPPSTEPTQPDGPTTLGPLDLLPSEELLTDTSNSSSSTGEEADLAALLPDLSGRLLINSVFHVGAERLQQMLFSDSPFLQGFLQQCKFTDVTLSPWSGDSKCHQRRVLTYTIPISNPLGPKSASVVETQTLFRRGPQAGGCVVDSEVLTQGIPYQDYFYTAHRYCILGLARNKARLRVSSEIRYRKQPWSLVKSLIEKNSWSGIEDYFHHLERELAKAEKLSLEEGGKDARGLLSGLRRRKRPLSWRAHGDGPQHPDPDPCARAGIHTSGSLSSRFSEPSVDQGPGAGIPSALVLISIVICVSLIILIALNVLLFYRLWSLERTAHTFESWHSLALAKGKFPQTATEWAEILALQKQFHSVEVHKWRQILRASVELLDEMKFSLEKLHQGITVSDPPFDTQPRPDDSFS
UniProt O43772: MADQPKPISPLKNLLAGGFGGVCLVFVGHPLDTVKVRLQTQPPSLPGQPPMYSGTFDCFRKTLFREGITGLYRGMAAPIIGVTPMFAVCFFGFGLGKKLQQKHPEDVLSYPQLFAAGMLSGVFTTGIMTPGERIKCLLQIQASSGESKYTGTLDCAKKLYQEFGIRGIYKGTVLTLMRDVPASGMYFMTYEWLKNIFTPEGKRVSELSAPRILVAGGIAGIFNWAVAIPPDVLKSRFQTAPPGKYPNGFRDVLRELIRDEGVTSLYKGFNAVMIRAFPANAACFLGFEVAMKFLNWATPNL
UniProt O43865, whole entry: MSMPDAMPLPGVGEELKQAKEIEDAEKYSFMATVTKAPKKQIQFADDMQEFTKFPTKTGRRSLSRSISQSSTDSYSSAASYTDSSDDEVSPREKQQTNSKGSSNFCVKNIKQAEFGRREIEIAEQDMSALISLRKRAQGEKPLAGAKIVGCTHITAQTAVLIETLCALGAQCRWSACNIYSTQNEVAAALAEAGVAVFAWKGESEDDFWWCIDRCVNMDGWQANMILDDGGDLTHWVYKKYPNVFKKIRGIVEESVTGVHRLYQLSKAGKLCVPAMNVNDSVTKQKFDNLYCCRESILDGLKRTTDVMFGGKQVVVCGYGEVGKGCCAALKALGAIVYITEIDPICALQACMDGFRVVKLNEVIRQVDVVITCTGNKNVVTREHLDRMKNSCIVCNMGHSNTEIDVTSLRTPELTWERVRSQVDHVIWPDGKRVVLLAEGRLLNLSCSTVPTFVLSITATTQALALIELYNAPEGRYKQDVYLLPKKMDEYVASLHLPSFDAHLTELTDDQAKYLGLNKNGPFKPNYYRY
UniProt O15392, whole entry: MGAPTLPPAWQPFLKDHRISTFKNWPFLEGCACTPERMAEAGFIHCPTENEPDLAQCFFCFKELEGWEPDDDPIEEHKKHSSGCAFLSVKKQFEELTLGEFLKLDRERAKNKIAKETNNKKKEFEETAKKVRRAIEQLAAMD
UniProt O00232: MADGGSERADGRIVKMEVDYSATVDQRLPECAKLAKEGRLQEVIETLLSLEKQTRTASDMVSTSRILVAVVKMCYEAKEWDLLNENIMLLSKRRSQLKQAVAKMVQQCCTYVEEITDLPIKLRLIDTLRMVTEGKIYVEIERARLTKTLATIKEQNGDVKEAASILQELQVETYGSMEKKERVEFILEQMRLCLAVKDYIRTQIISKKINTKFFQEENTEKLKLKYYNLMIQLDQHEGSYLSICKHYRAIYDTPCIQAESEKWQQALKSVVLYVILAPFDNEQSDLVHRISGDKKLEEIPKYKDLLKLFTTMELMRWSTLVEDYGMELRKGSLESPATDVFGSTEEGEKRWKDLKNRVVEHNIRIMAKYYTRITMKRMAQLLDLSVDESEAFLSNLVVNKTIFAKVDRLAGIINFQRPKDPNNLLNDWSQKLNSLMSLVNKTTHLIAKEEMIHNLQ
UniProt O43257, whole entry: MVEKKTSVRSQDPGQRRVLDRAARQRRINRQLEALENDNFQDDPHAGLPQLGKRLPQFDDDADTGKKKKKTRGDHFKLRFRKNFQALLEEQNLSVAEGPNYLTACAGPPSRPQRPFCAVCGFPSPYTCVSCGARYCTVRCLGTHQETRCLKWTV
UniProt O43678, whole entry: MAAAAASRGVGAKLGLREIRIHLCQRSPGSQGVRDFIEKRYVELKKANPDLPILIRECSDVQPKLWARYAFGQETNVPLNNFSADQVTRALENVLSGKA

Compound: Nc1ncnc2c1ncn2[C@@H]1O[C@H](COP(=O)(O)OP(=O)(O)OP(=O)(O)O)[C@@H](O)[C@H]1O [adenosine triphosphate]
Experiment: NP40-soluble protein abundance relative to vehicle (solubility fold change) (ratio); higher = more soluble protein in presence of ATP
How it was run: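 Jurkat crude lysate (Dounce-homogenised) was treated with eight concentrations from 0.1 to 10 mM for 10 min at room temperature, then 3 min at 37 °C. It was solubilised with 0.8% NP40 and benzonase (60 min, 4 °C) and ultracentrifuged, and the supernatant was TMT-labelled for LC-MS/MS. Intensities were vsn-normalised, and the value is the fold change against the NP40-processed vehicle per replicate, from three independent experiments.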

Target	NP40-soluble protein abundance (concentration: 0.1mM)	NP40-soluble protein abundance (concentration: 0.5mM)	NP40-soluble protein abundance (concentration: 1mM)	NP40-soluble protein abundance (concentration: 2mM)	NP40-soluble protein abundance (concentration: 4mM)	NP40-soluble protein abundance (concentration: 6mM)	NP40-soluble protein abundance (concentration: 8mM)	NP40-soluble protein abundance (concentration: 10mM)
UniProt O15066 and related entries	0.991 ± 0.027	0.997 ± 0.053						
PDLIM1 (UniProt O00151)	0.983 ± 0.017	0.992 ± 0.028	0.963 ± 0.054	0.958 ± 0.031	0.944 ± 0.041	0.971 ± 0.016	0.939 ± 0.035	0.919 ± 0.036
UniProt O15173 and related entries	0.91 ± 0.1	0.837 ± 0.14						
DYNC1LI2 (UniProt O43237)	0.976 ± 0.028	0.997 ± 0.068	0.947 ± 0.049	0.939 ± 0.049	0.905 ± 0.047	0.959 ± 0.14	0.92 ± 0.075	0.932 ± 0.032
M0QZ12 and related entries (UniProt Q96CP6)	1.02 ± 0.069	1.02 ± 0.083						
SLC25A20 (UniProt O43772)	0.946 ± 0.072	0.949 ± 0.094	0.918 ± 0.088	0.945 ± 0.037	0.943 ± 0.012	0.822 ± 0.099	0.884 ± 0.028	0.974 ± 0.0095
UniProt O43865	0.989 ± 0.069	1.03 ± 0.034	0.982 ± 0.1	0.965 ± 0.063	0.963 ± 0.076	0.973 ± 0.1	0.96 ± 0.081	0.969 ± 0.043
UniProt O15392 and related entries	1.71 ± 1.4	0.926 ± 0.21	0.961 ± 0.1	2.09 ± 1.6	1.13 ± 0.09	1.23 ± 0.031	1.26 ± 0.092	1.31 ± 0.16
PSMD12 (UniProt O00232)	0.97 ± 0.037	0.95 ± 0.023	0.938 ± 0.063	0.894 ± 0.035	0.863 ± 0.015	0.843 ± 0.025	0.898 ± 0.031	0.885 ± 0.035
ZNHIT1 (UniProt O43257)	1.06 ± 0.1	1.04 ± 0.11	1.12 ± 0.047	1.16 ± 0.012	1.27 ± 0.042	1.3 ± 0.037	1.16 ± 0.037	1.19 ± 0.073
UniProt O14662-2|O14662-4|O14662-5	0.942 ± 0.076	0.928 ± 0.066	0.98 ± 0.066	0.94 ± 0.042	0.993 ± 0.044	0.974 ± 0.037	0.983 ± 0.034	0.921 ± 0.068
NDUFA2 (UniProt O43678)	0.862 ± 0.15	0.831 ± 0.12	0.882 ± 0.1	0.874 ± 0.16	0.924 ± 0.1	0.985 ± 0.21	0.876 ± 0.081	0.835 ± 0.13
